# In PubChem BioAssay AID1671190 (National Center for Advancing Translational Sciences (NCATS), 2021):
# Sequences of proteins named here, by UniProt entry; tags and fusion partners are left off. A change or cut given only in a name is not applied to a line headed by its entry.
# UniProt P18054: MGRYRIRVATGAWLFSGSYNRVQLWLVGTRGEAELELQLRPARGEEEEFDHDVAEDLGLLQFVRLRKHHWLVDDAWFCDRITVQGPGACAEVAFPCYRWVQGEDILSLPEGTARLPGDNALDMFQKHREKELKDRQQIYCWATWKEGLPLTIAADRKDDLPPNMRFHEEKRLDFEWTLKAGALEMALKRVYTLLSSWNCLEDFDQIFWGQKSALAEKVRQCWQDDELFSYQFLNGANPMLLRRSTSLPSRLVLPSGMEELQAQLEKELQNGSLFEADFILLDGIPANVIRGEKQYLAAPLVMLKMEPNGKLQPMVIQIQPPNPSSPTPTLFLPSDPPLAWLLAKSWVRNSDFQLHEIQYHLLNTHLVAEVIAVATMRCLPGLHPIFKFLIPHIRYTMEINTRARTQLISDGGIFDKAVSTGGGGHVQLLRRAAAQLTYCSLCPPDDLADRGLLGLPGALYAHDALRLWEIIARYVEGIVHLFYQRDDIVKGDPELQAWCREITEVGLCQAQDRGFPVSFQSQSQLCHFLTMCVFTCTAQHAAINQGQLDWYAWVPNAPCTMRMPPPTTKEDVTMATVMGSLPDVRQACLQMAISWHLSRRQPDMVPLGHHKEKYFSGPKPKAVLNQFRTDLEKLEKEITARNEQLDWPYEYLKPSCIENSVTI
# Several values for one entry are separate records, joined by “and”; a condition that tells them apart may be missing. Identical values can stand only once. The whole screen tested about 580,000 compounds, of which about 6,100 (1.1%) were called active. The inconclusive results got no clear call from the source; some entries with a clear call stand among them for comparison. Calls come from the whole dose curve; as a rule, active = well fitted inhibition curve with a large enough effect; inconclusive = small, poorly fitted or top-dose-only effect, or another doubt; inactive = no such curve, though single readings can be large or run the other way. Where the call is inconclusive, the potency comes from a doubtful curve fit.
# Target: Polyunsaturated fatty acid lipoxygenase ALOX12 (Homo sapiens) (UniProt P18054)
# Assay: Primary qHTS assay for inhibitors of human arachidonate 12S-lipoxygenase (ALOX12): Round 2
# Conditions: purified 12hLO, xylenol orange hydroperoxide absorbance; activity change, negative = inhibition: at 108 µM (top of the series) unless noted
# Method in brief: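 Purified human 12hLO at 150 nM in 25 mM Hepes, 0.01% Triton X-100, pH 7.0, preincubated 15 min at room temperature with compound. Reaction started with 40 uM arachidonic acid, 30 min at room temperature. Hydroperoxide measured by Fe-xylenol orange, 573/405 nm absorbance ratio.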
# % is set by controls: 0 for no effect and ±100 for the full control effect; potency is the fitted concentration of half-maximal effect.
SMILES,"activity change, negative = inhibition",Potency
C=CCN(CC=C)C(=O)Nc1cccc(C(=O)NCC)c1,inactive: 13.1%,
O=C(O)C(c1ccccc1)N1C(=O)/C(=C\c2ccc(-c3cccc(Cl)c3)o2)SC1=S (configuration not stated),,active: 2 µM
CCOc1ccccc1NC(=O)N1c2ccccc2Sc2ccccc21,,"inconclusive: 112 µM [inhibitor, partial curve, poor fit]"
COc1ccc2c3c(cccc13)OC2=O,,"inconclusive: 31.6 µM [inhibitor, single point]"
O=C(O)CCCCCN1C(=O)C(O)=C(C(=O)/C=C/c2ccccc2)C1c1ccc2c(c1)OCO2 (configuration not stated),,"inconclusive: 56.2 µM [inhibitor, partial curve, poor fit]"
COc1ccccc1NC(=O)Cc1cnc(-n2cccc2)s1,inactive: 13.2%,
CCC1(c2ccccc2)NC(=O)N(CC(=O)N(c2ccccc2)C2CCS(=O)(=O)C2)C1=O (configuration not stated),,"inconclusive: 0.282 µM [inhibitor, full curve, poor fit]"
COCCCn1c(=N)c(C(=O)NCc2ccco2)cc2c(=O)n3cccc(C)c3nc21,,"inconclusive: 141 µM [inhibitor, partial curve, poor fit]"
CS(=O)(=O)N1CCC(CC(=O)N2CC=C(c3ccccc3)CC2)C1 (configuration not stated),inactive: 30.1%,
Cc1cc(OCCNCCO)cc(C)c1Cl,inactive: 0%,
O=C(NCCN1C(=O)S/C(=C\c2ccc(Cl)cc2Cl)C1=O)C1=COCCO1,,"inconclusive: 17.8 µM [inhibitor, partial curve]"
C=CCn1c(=N)c(C(=O)NCCCOC)cc2c(=O)n3cc(C)ccc3nc21,,"inconclusive: 100 µM [inhibitor, single point]"
COC(=O)C(NC(C)=O)(Nc1ccc(C)cn1)C(F)(F)F (configuration not stated),,"inconclusive: 141 µM [inhibitor, partial curve, poor fit]"
CC1(C)CC(=S)Nc2ccccc2S1,,"inconclusive: 5.01 µM [inhibitor, full curve, poor fit]"
Cc1oc(-c2cccc(Cl)c2)nc1CN1CCCC(C(=O)NCCc2ccc(Cl)cc2)C1 (configuration not stated),,"inconclusive: 56.2 µM [inhibitor, partial curve, poor fit]"
Cc1ccc(Sc2cccc(Cl)n2)cc1,inactive: -26%,
Cc1ccccc1CN1CCC2(Cc3ccccc3CNC2=O)C1 (configuration not stated),,"inconclusive: 35.5 µM [inhibitor, partial curve]"
O=C(NC(=S)Nc1cc(C(F)(F)F)ccc1N1CCOCC1)c1ccc(-c2cccc(Cl)c2)o1,,"inconclusive: 15.8 µM [inhibitor, full curve]"
Cc1ccsc1C(=O)N1CCc2nnc([C@@H]3C[C@@H](O)CN3C)n2CC1,,"inconclusive: 6.31 µM [inhibitor, partial curve]"
O=C(O)CCNC(=S)Nc1cccc(F)c1,,"inconclusive: 141 µM [inhibitor, single point]"
COc1ccc(/C=N/NC(=O)c2ccc(COc3cccc4cccnc34)cc2)cc1O,inactive: -9.49%,
Cn1c(CNC(=O)CC[C@H]2NC(=O)c3ccccc3NC2=O)nc2ccccc21,inactive: 14.4%,
O=C(/C=C/c1ccco1)NC(=S)Nc1ccccc1Br,,"inconclusive: 39.8 µM [inhibitor, partial curve]"

SMILES,"activity change, negative = inhibition",Potency
Cc1ccc(O)c(C(=O)CC(=O)c2ccc(C(C)(C)C)cc2)c1,inactive: 16.8%,
O=P(O)(O)c1ccccc1OCCOCCOc1ccccc1P(=O)(O)O,,"inconclusive: 1.41 µM [inhibitor, full curve, poor fit]"
O=C(COC(=O)c1ccc(-c2ccc([N+](=O)[O-])cc2)o1)Nc1ccc(Cl)cc1C(F)(F)F,,"inconclusive: 31.6 µM [inhibitor, partial curve, poor fit]"
CCOc1ccc(CNc2ccc3c(c2)ncn3C(C)(C)C)cc1,inactive: -14.7%,
COc1cccc(N2C(=O)NC(=NC3CCCCC3)C23CCCN(C(=O)c2ccc(C(F)(F)F)cc2)C3)c1 (configuration not stated),inactive: -0.493% [at 6.33 µM],
C/C=C/Cn1c(NCCO)nc2c1c(=O)[nH]c(=O)n2C,inactive: -0.718%,
CC(=O)Nc1cc(C(=O)NCc2ccc(C)cc2)ccc1S(=O)(=O)c1ccc(Cl)cc1,inactive: -26.6%,
CCOC(=O)N1CCN(C(=O)c2ccc3c(=O)n(-c4ccc(OC)cc4OC)c(=S)[nH]c3c2)CC1,,"inconclusive: 31.6 µM [inhibitor, partial curve, poor fit]"
Cc1cc(C)c(S(=O)(=O)Nc2cnc3ccccc3c2)c(C)c1,,"active: 15.8 µM and inconclusive: 100 µM [inhibitor, partial curve, poor fit]"
Cc1ccc(S(=O)(=O)Nc2ccc(Cl)cc2)cc1NC(=O)c1cc2c(s1)CCCC2,,"inconclusive: 35.5 µM [inhibitor, partial curve, poor fit]"
Cc1ccc2[nH]c(=O)c(CNS(=O)(=O)c3ccccc3)c(-c3ccccc3)c2c1,inactive: 20.8%,
COc1cc(/C=N/O)cc(Br)c1OCc1cccc(Cl)c1,,"inconclusive: 39.8 µM [inhibitor, partial curve, poor fit]"
CC1=NS(=O)(=O)N(Cc2ccccc2)C=C1C(=O)OCc1nc(-c2ccccc2C)no1,inactive: 23.2%,
CCOC(=O)c1cccc(NC(=O)CC2C(=O)N(c3ccc(Cl)cc3)C(=O)N2C2CCCC2)c1 (configuration not stated),inconclusive: -30.1% [inhibitor],
Cc1ccc(S(=O)(=O)NCCc2cc3ccc(C)cc3[nH]c2=O)cc1,,"inconclusive: 100 µM [inhibitor, partial curve, poor fit]"
Cc1ccc2nc(C3CCN(Cc4ccc(-c5cccs5)cc4)CC3)[nH]c(=O)c2c1,,"inconclusive: 44.7 µM [inhibitor, partial curve, poor fit] and active: 35.5 µM"
O=C(/C=C/Nc1ccc(F)c(Cl)c1)c1ccc(-c2ccccc2)cc1,,"inconclusive: 89.1 µM [inhibitor, partial curve, poor fit]"
Cc1ccc(-n2nc(-c3ccco3)cc2C(=O)O)c(C)c1,,"inconclusive: 25.1 µM [inhibitor, single point]"
Cc1ccc(C2=NCCn3c2c2ccc(C(F)(F)F)cc2[n+]3[O-])cc1,,"inconclusive: 22.4 µM [inhibitor, partial curve, poor fit]"
CN(CC(=O)Nc1cccc(F)c1)C(=O)CCSc1ccc(F)cc1,,"inconclusive: 158 µM [inhibitor, partial curve, poor fit]"
CC(=O)Nc1ccc(S(=O)(=O)N(CC(=O)NCC2CCCO2)Cc2ccccc2Cl)cc1 (configuration not stated),,"inconclusive: 112 µM [inhibitor, single point]"
C=CCc1cccc(C=Nc2c[nH]c(=O)[nH]c2=O)c1O,inactive: 5.36%,
CC(Sc1c(Cl)cccc1Cl)C(=O)c1ccc2c(c1)CCC2 (configuration not stated),inactive: 29.6%,

SMILES,"activity change, negative = inhibition",Potency
Cc1ccc(SCC(=O)NCc2ccc(CS(N)(=O)=O)cc2)cc1C,,"inconclusive: 44.7 µM [inhibitor, partial curve]"
CCCN1CCN(S(=O)(=O)c2cn(C)nc2C)CC1,,"inconclusive: 35.5 µM [inhibitor, partial curve, poor fit]"
CCC1CCC2(CC1)NC(=O)N(Cc1coc(-c3ccc(C)cc3)n1)C2=O (configuration not stated),,"inconclusive: 112 µM [inhibitor, single point]"
COC(=O)[C@]12CCCCC=C1N(CCC1=CCCCC1)C(=O)[C@H](CC(=O)NCCc1ccccc1OC)C2,inactive: 0.943%,
O=C(O)C1CC2(CCN(C(=O)NCCc3ccccc3)CC2)CN1 (configuration not stated),,"inconclusive: 3.55 µM [inhibitor, partial curve, poor fit]"
N#CC1=C(N)SC(N)=C(C#N)C1c1c(Cl)cccc1Cl,,"inconclusive: 1.12 µM [inhibitor, full curve, poor fit]"
Cc1cc(C)nc(/N=C2\NC(=O)CC(C(=O)O)N2c2cccc(C(F)(F)F)c2)n1 (configuration not stated),,"inconclusive: 39.8 µM [inhibitor, partial curve, poor fit]"
Cc1ccc2[nH]c(=O)c(CN3CCCCC3)c(-c3ccccc3)c2c1,,"inconclusive: 126 µM [inhibitor, single point]"
CCCc1nc(C(=O)N2CCC3(CCc4ccccc43)CC2)cs1,inactive: -3.55%,
O=C(Cc1ccsc1)N1CCC(c2noc(C3CC3)n2)C1 (configuration not stated),inactive: 28.2%,
CS(=O)(=O)c1cccc(C(=O)N2CCCCC2)c1,inactive: 22.7%,
NC(=O)c1ccsc1NC(=O)c1cccs1,inactive: -3.54%,
COc1ccccc1/C=C/c1nc(C#N)c(N2CCN(C)CC2)o1,,"inconclusive: 100 µM [inhibitor, partial curve, poor fit]"
CC(C)(CO)NC(=O)Nc1ccc(Cl)c(Cl)c1,,"inconclusive: 10 µM [inhibitor, partial curve, poor fit]"
O=C(CN1CCN(c2ccccc2)CC1)NCc1ccc(F)cc1,,"inconclusive: 141 µM [inhibitor, single point]"
O=C(c1cc2ccccc2[nH]1)N1CCC(Cc2nncn2CC2CC2)C1 (configuration not stated),inactive: 1.79%,
COc1ccccc1-c1ccc2ncnc(N(C)Cc3ccco3)c2c1,,"inconclusive: 50.1 µM [inhibitor, partial curve, poor fit]"
C[C@H]1[C@@H](NC(=O)Nc2ccc(F)cc2)CC[C@@]23CCCN2C(=O)CCC[C@@H]13,inactive: -7.32%,
O=C(CSc1n[nH]c(-c2ccccc2)n1)c1ccccc1,,"inconclusive: 39.8 µM [inhibitor, partial curve, poor fit]"
COCCn1c(SCC(=O)Nc2cc(Cl)ccc2C)nc2ccsc2c1=O,,"inconclusive: 100 µM [inhibitor, single point]"
O=C1CN(C(=O)COc2c(F)c(F)cc(F)c2F)c2ccccc2N1,,"inconclusive: 112 µM [inhibitor, single point]"
